# Source: the supplement of paper PMC8497498
# The other results are listed elsewhere or left out. The data scatter; read single values as rough.
# How the values were obtained:
# Conditions in all cases: 10 µM
# [1] = system: Plasmodium vivax liver stage (primary human hepatocyte culture); experiment: hypnozoite quantity inhibition (% inhibition); higher = more active against hypnozoites
# [2] = system: Plasmodium vivax liver stage (primary human hepatocyte culture); experiment: schizont net growth area inhibition (% inhibition); higher = more active against liver schizonts
# [3] = system: primary human hepatocytes; experiment: hepatic nuclei reduction relative to DMSO (100 - % of negative control); higher = more toxic to hepatocytes
# [4] = assay mode: Prophylactic (treated before or shortly after infection), fixed day 6 post-infection
# [5] = assay mode: Radical Cure (treated from day 5 post-infection for 3 days), fixed day 8 post-infection
Structure (SMILES),"hypnozoite quantity inhibition [1, 4]","hypnozoite quantity inhibition [1, 5]","schizont net growth area inhibition [2, 4]","schizont net growth area inhibition [2, 5]","hepatic nuclei reduction [3, 4]","hepatic nuclei reduction [3, 5]"
CCCc1ccc(S(=O)(=O)Nc2ccc(CN3CCN(CC4CC4)CC3)cc2)cc1,-54,3,-2,-66.7,-11%,-4%
Cc1cc(NC(=O)c2ccc(Oc3ccc(Cl)cc3O)o2)no1,46,-25,-11.6,-100,2%,-6%
CC1(c2ccccc2)Nc2ccccc2-c2nc3ccccc3n21 (stereo not given),-5.1,23.7,44.8,-56.2,-2%,-6%
Cc1ccc(Cl)cc1N1CCN(CCCNC(=O)C2CCN(c3nc4ccccc4[nH]3)CC2)CC1,-24.6,42.8,-15.1,-2.4,15%,-5%
Cc1nn(C(=O)Nc2cccc(C(F)(F)F)c2)c(C)c1Sc1ncccn1,-26,0,2.4,35.8,-8%,2%
CN(C)CCCNCc1ccc(-c2ccc(F)c(Cl)c2)o1,-11,47.3,24.8,37,-1%,4%
CC(=O)Nc1ccc(-c2noc(CC3CCCN(Cc4cccc(F)c4C)C3)n2)cc1 (stereo not given),13,-4,-15.5,-27.5,-1%,1%
Clc1cc(Br)ccc1-c1ccc(CNCC2CCNCC2)o1,19,7.4,56.7,8.1,8%,-9%
CN(Cc1cnc2nc(N)nc(N)c2n1)c1ccc(C(=O)N[C@@H](CCC(=O)O)C(=O)O)cc1,-27,31,37.3,10.2,-11%,-6%
CN1CCCN(C(c2ccccc2)c2ccc(Cl)cc2)CC1 (stereo not given),-34,26,-23.8,26.1,-12%,-2%
CCN1CCN(c2cc(C)c3cc(NC(=O)c4ccc(OC)c(OC)c4)ccc3n2)CC1,-1.3,-38.9,96.4,-64,-3%,-10%
O=C(CSc1ccc2nnc(-c3cccc(F)c3)n2n1)Nc1ccc2c(c1)OCO2,-38.5,29,12.1,40.8,-11%,1%
CS(=O)(=O)c1ccc(-c2cnc(N)c(-c3ccc(C(F)(F)F)nc3)n2)cc1,99,26,102,105,-12%,-9%
CCOc1ccc2cc(-c3nn(CC4CCN(C)CC4)c4ncnc(N)c34)ccc2c1,-21,-38,45.6,-55,1%,2%
CC(=O)Nc1nnc(SCc2c(C)cc(C(C)(C)C)cc2C)s1,4.4,34.6,40.2,-14.3,4%,-8%
CC1CCC2C(C)C(OC(=O)CCC(=O)O)OC3OC4(C)CCC1C32OO4 (stereo not given),41,-17,61.5,20.2,10%,-2%
Nc1ccc(-c2nc3cc(Oc4ccc(Oc5ccc6[nH]c(-c7ccc(N)cc7)nc6c5)cc4)ccc3[nH]2)cc1,-25.8,38.2,-38.6,-19,-9%,-3%
CCOC(=O)c1cnc2ccc(CC)cc2c1O,-35.5,10.7,-21,-46.7,-13%,-5%
Nc1ncnc2c1ncn2[C@@H]1O[C@H](COS(=O)(=O)NC(=O)c2ccccc2O)[C@@H](O)[C@H]1O,21,12,-20.3,21.3,3%,-11%
CN(C)Cc1ccccc1CNc1ccnc2cc(Cl)ccc12,-1,41,49.4,21.2,-5%,-9%

Structure (SMILES),"hypnozoite quantity inhibition [1, 4]","hypnozoite quantity inhibition [1, 5]","schizont net growth area inhibition [2, 4]","schizont net growth area inhibition [2, 5]","hepatic nuclei reduction [3, 4]","hepatic nuclei reduction [3, 5]"
CC1CCC2C(C)C(O)OC3OC4(C)CCC1C32OO4 (stereo not given),14,23,11.7,-6.3,-14%,-4%
CCCCOC(=O)Nc1cc2nc(C3CCCCC3)[nH]c2cc1N1CCCC1,-2,-85,14.8,-4.7,-8%,-5%
CCOc1ccc(-c2nc(NC(=O)CS(=O)(=O)c3ccccc3)sc2C)cc1,28,-2,17.4,8.9,1%,3%
COc1cncc(-c2cncc(N3CCN(c4ccncc4)CC3)n2)c1,-85,-20,-3.7,-64.9,-10%,-5%
O=C(C1CCN(c2nnnn2-c2ccccc2)CC1)N1CCc2ccccc2C1,-49,-8,31.6,-1.4,-6%,6%
Cc1ccc(N2C(=O)C3C(C2=O)C2(c4ccccc4)C(=O)C3(c3ccccc3)C(c3ccccc3)=C2c2ccccc2)cc1 (stereo not given),-8,38.2,14.3,31.3,-13%,12%
CCOC(=O)c1noc(N)c1-c1ccccc1,-11,2,-70.8,40.9,-11%,-3%
O=C(Nc1ccc(Br)cc1)Nc1cccc(Cl)c1,-7,10.1,50.5,26,-3%,-7%
CCS(=O)(=O)N(Cc1ccco1)Cc1cc2ccc(C)cc2nc1O,14,0,-45.8,12.5,-1%,7%
Cc1ccc(C)c(-c2csc(Nc3ccc(C)c(C)c3)n2)c1,-12.6,26.5,-3.6,-88.5,6%,0%
COc1cccc(Cn2c(Oc3ccccc3)nc3c2c(=O)n(C)c(=O)n3C)c1,-8.7,29,-11.7,31.4,-3%,-4%
COc1ccccc1CNC(=O)CCn1c(=O)[nH]c2ccsc2c1=O,-7,-74.3,86.9,29.1,-1%,-7%
CC(C)(C)NCc1cc(Nc2ccnc3cc(Cl)ccc23)ccc1F,-52,15,39.5,35,-5%,-8%
Cc1cccc(NC(=O)c2cc(S(=O)(=O)N(C)c3ccc(F)cc3)ccc2Cl)n1,-26,-36,41.8,-45.3,-7%,0%
O=C(COc1cccc(F)c1)Nc1nc(-c2ccccn2)cs1,41,-54,27.5,-103,-2%,-8%
CS(=O)(=O)N1CCC(CCn2nc(Cc3cccc4ccccc34)c3c(N)ncnc32)CC1,4,-15,46.4,31.8,-2%,-5%
O=C(c1[nH]nc2c1CCCC2)N1CCN(Cc2ccc3c(c2)OCO3)CC1,-57,-4,24.8,-215,-6%,-1%
FC(F)(F)c1cnc(Sc2nnc(-c3ccncc3)o2)c(Cl)c1,-45,-43,27.8,-22.2,-10%,0%
O=C(Nc1ccc(-c2nc3ccccc3[nH]2)cc1)c1ccc(Cl)c(Cl)c1,7.6,-63.4,49.3,-188,1%,-6%
Nc1nccc2ccc(-c3ccc4nccn4c3)cc12,-108,-34,6.8,64.8,-4%,9%

Structure (SMILES),"hypnozoite quantity inhibition [1, 4]","hypnozoite quantity inhibition [1, 5]","schizont net growth area inhibition [2, 4]","schizont net growth area inhibition [2, 5]","hepatic nuclei reduction [3, 4]","hepatic nuclei reduction [3, 5]"
Cc1ccc(Nc2nc(N)c3ccccc3n2)cc1Cl,21,38.2,-160,-4.7,0%,-7%
COc1ccc(N(CCc2cccc(C)n2)C(C)=O)cc1,7,-20,6.1,-88.6,-3%,-8%
CC(C)(C)NCc1cc(C(C)(C)C)cc(-c2ccc(Cl)cc2)c1O,-5,36,44.2,7.9,-11%,-7%
COc1cccc(OC)c1C(=O)Nc1ccc(Cl)c(-c2nc3ccccc3s2)c1,-83,7,-18.9,37.5,-12%,-2%
O=C1C2=C(Nc3ccccc3SC2c2ccccc2)c2ccccc21 (stereo not given),12,42.8,57.8,-60.5,6%,1%
O=C(Nc1ccc(-c2nc3cc(NC(=O)c4ccc(Cl)cc4)ccc3[nH]2)cc1)c1ccc(Cl)cc1,-11.7,42.7,-54.4,37.1,4%,-1%
Cc1cc(OCC(=O)Nc2ccc(C(C)C)cc2)n(C)c(=O)c1C#N,-93,-38,-37.3,-106,-9%,-4%
CCc1ccccc1-n1c(C)cn2c3c(=O)n(C(C(=O)OC)C(C)C)c(=O)n(C)c3nc12 (stereo not given),16,4,-9.7,43,-8%,2%
CC(C)CCNCC(O)Cn1c2ccccc2c2ccccc21 (stereo not given),2.5,-28,16.3,33.6,-1%,-2%
OCCNc1nc(Nc2ccc(Cl)c(Cl)c2)nc2ccccc12,-12.6,48.2,7.2,38.7,-2%,-3%
CCN(CC)CCNc1ncnc2c1[nH]c1ccc(Br)cc12,10.1,45.5,2.1,-76.1,-1%,-8%
CCCOCc1cc(CN2CCN(c3cccc(Cl)c3)CC2)c(O)c2ncccc12,-6.3,51,-9.1,76.9,0%,-5%
CCc1ccc(S(=O)(=O)Nc2cc(CN3CCN(CCC(C)C)CC3)ccc2C)cc1,17,-36,-10,-67.9,2%,-9%
CC[C@@H]([C@H](C)O)n1ncn(-c2ccc(N3CCN(c4ccc(OC[C@@H]5CO[C@@](Cn6cncn6)(c6ccc(F)cc6F)C5)cc4)CC3)cc2)c1=O,10,-18,28.9,28.4,4%,3%
COCC(C)NC(=O)CSc1ncnc2sc(-c3ccccc3)cc12 (stereo not given),34,11,14.8,8.4,0%,-2%
CN(C)c1ccc(N=Cc2ccc(N3CCOCC3)cc2)cc1,-20.2,29.2,27.8,-18.1,6%,-1%
C[C@]1(O)C[C@@H](c2nc(-c3ccc4ccc(-c5ccccc5)nc4c3)c3c(N)nccn32)C1,-2,-36,19.3,-6.7,-11%,-9%
CCOc1cccc2sc(N(Cc3cccnc3)C(=O)C3CCCCC3)nc12,0,34.6,-22.1,32.2,-5%,-1%
COc1cccc(OCC(=O)c2ccc(Br)cc2)c1,3,-23,18.7,-50.9,0%,11%
CCn1c2c(c(=N)c3c1CCC3)CCCC2,-1.3,23.7,-123,17.4,-5%,-2%

# Molecules shown so far that have a Cl atom, in the order listed:
Structure (SMILES),"hypnozoite quantity inhibition [1, 4]","hypnozoite quantity inhibition [1, 5]","schizont net growth area inhibition [2, 4]","schizont net growth area inhibition [2, 5]","hepatic nuclei reduction [3, 4]","hepatic nuclei reduction [3, 5]"
Cc1cc(NC(=O)c2ccc(Oc3ccc(Cl)cc3O)o2)no1,46,-25,-11.6,-100,2%,-6%
Cc1ccc(Cl)cc1N1CCN(CCCNC(=O)C2CCN(c3nc4ccccc4[nH]3)CC2)CC1,-24.6,42.8,-15.1,-2.4,15%,-5%
CN(C)CCCNCc1ccc(-c2ccc(F)c(Cl)c2)o1,-11,47.3,24.8,37,-1%,4%
Clc1cc(Br)ccc1-c1ccc(CNCC2CCNCC2)o1,19,7.4,56.7,8.1,8%,-9%
CN1CCCN(C(c2ccccc2)c2ccc(Cl)cc2)CC1 (stereo not given),-34,26,-23.8,26.1,-12%,-2%
CN(C)Cc1ccccc1CNc1ccnc2cc(Cl)ccc12,-1,41,49.4,21.2,-5%,-9%
O=C(Nc1ccc(Br)cc1)Nc1cccc(Cl)c1,-7,10.1,50.5,26,-3%,-7%
CC(C)(C)NCc1cc(Nc2ccnc3cc(Cl)ccc23)ccc1F,-52,15,39.5,35,-5%,-8%
Cc1cccc(NC(=O)c2cc(S(=O)(=O)N(C)c3ccc(F)cc3)ccc2Cl)n1,-26,-36,41.8,-45.3,-7%,0%
FC(F)(F)c1cnc(Sc2nnc(-c3ccncc3)o2)c(Cl)c1,-45,-43,27.8,-22.2,-10%,0%
O=C(Nc1ccc(-c2nc3ccccc3[nH]2)cc1)c1ccc(Cl)c(Cl)c1,7.6,-63.4,49.3,-188,1%,-6%
Cc1ccc(Nc2nc(N)c3ccccc3n2)cc1Cl,21,38.2,-160,-4.7,0%,-7%
CC(C)(C)NCc1cc(C(C)(C)C)cc(-c2ccc(Cl)cc2)c1O,-5,36,44.2,7.9,-11%,-7%
COc1cccc(OC)c1C(=O)Nc1ccc(Cl)c(-c2nc3ccccc3s2)c1,-83,7,-18.9,37.5,-12%,-2%
O=C(Nc1ccc(-c2nc3cc(NC(=O)c4ccc(Cl)cc4)ccc3[nH]2)cc1)c1ccc(Cl)cc1,-11.7,42.7,-54.4,37.1,4%,-1%
OCCNc1nc(Nc2ccc(Cl)c(Cl)c2)nc2ccccc12,-12.6,48.2,7.2,38.7,-2%,-3%
CCCOCc1cc(CN2CCN(c3cccc(Cl)c3)CC2)c(O)c2ncccc12,-6.3,51,-9.1,76.9,0%,-5%
